According to publication PMC4055689:
These are yes or no findings as the source states them, for the method shown. Binding seen in cells or lysates may run through a third protein. Some results given as binding are weak or reduced against the parent protein; the word gives no strength. Where a sequence is shown, tags or fusion partners need not be part of it.

Sequences of proteins named here, by UniProt entry; tags and fusion partners are left off. A change or cut given only in a name is not applied to a line headed by its entry.
UniProt P14867: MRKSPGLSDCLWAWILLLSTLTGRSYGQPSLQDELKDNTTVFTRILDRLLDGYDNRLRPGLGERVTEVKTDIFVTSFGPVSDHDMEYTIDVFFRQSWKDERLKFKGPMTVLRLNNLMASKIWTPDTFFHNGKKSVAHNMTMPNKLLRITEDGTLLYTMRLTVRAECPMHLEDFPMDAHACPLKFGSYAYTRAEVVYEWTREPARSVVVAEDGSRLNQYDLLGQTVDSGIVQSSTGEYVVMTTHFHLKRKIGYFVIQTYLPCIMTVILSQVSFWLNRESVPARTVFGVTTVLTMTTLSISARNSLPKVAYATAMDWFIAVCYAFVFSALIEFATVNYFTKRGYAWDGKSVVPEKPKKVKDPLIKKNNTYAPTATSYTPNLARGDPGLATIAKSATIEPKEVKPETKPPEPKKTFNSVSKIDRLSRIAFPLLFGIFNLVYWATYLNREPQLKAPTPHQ

B1: ASIC1a with HA tag (protein, UniProt P78348-2 1-528)
chain: MELKAEEEEVGGVQPVSIQAFASSSTLHGLAHIFSYERLSLKRALWALCFLGSLAVLLCVCTERVQYYFHYHHVTKLDEVAASQLTFPAVTLCNLNEFRFSQVSKNDLYHAGELLALLNNRYEIPDTQMADEKQLEILQDKANFRSFKPKPFNMREFYDRAGHDIRDMLLSCHFRGEVCSAEDFKVVFTRYGKCYTFNSGRDGRPRLKTMKGGTGNGLEIMLDIQQDEYLPVWGETDETSFEAGIKVQIHSQDEPPFIDQLGFGVAPGFQTFVACQEQRLIYLPPPWGTCKAVTMDSDLDFFDSYSITACRIDCETRYLVENCNCRMVHMPGDAPYCTPEQYKECADPALDFLVEKDQEYCVCEMPCNLTRYGKELSMVKIPSKASAKYLAKKFNKSEQYIGENILVLDIFFEVLNYETIEQKKAYEIAGLLGDIGGQMGLFIGASILTVLELFDYAYEVIKHKLCRRGKCQKEAKRSSADKGVALSLDDVKRHNPCESLRGHPAGMTYAANILPHHPARGTFEDFTC
B2: endogenous ASIC1a of HEK293 cells (protein, UniProt P78348-2 1-528)
chain: MELKAEEEEVGGVQPVSIQAFASSSTLHGLAHIFSYERLSLKRALWALCFLGSLAVLLCVCTERVQYYFHYHHVTKLDEVAASQLTFPAVTLCNLNEFRFSQVSKNDLYHAGELLALLNNRYEIPDTQMADEKQLEILQDKANFRSFKPKPFNMREFYDRAGHDIRDMLLSCHFRGEVCSAEDFKVVFTRYGKCYTFNSGRDGRPRLKTMKGGTGNGLEIMLDIQQDEYLPVWGETDETSFEAGIKVQIHSQDEPPFIDQLGFGVAPGFQTFVACQEQRLIYLPPPWGTCKAVTMDSDLDFFDSYSITACRIDCETRYLVENCNCRMVHMPGDAPYCTPEQYKECADPALDFLVEKDQEYCVCEMPCNLTRYGKELSMVKIPSKASAKYLAKKFNKSEQYIGENILVLDIFFEVLNYETIEQKKAYEIAGLLGDIGGQMGLFIGASILTVLELFDYAYEVIKHKLCRRGKCQKEAKRSSADKGVALSLDDVKRHNPCESLRGHPAGMTYAANILPHHPARGTFEDFTC

Biological target: GABAA receptor α1β2 (GABAA receptor subunits α1 and β2) (UniProt P14867)
Experiment: co-IP; HEK293 lysates (1% Triton X-100, 50 mM Tris pH 7.5); precipitated with antibody to GABAAR β2 (β2/3) cross-linked to protein A/G-agarose, blotted for ASIC1a; cells co-transfected with HA-ASIC1a and GABAAR α1β2 (reversed co-IP) or transfected with GABAAR α1β2 only (endogenous ASIC1a)

Row | Binder | binding
1 | B1 | binds
2 | B2 | binds
